No constants are given. Whether binding was seen depends on the method and setting. Some binding calls cover weakened binding; strength is not graded here.
Columns and labels:
[1] = target: glia maturation factor beta (human) (UniProt P60983); assay: immunohistochemistry on metastatic breast cancer and lymph node tissue sections
[2] = target: glia maturation factor beta (human) (UniProt P60983); assay: immunohistochemistry on primary breast cancer tissue sections

Chains of the proteins cited; added tags and fusions are not shown. Lines headed by an entry give the natural chain unless they say otherwise; changes in a name come on top.
UniProt P60983: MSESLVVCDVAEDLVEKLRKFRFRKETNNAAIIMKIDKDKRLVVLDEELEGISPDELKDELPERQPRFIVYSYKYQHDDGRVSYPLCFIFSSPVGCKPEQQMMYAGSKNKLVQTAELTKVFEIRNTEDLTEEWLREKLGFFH

B1: Alper-sGMF-B mAb (antibody, V domains shown)
VH: VQLQQSGPELVKPGASVKMSCKASGYTFTSYVMHWVKQKPGQGLEWIGYINPYNEGTKYNEKFKGKATLTSDKSSSTAYMELSSLTSEDSAVYYCARSTMITTGFAYWGQGTTVT
VL: DILMTQSPSSLSASLGGKVTITCKASQDINKYIAWYQHKPGEGPRLLIHYTSTLQPGIPSRFSGSGSGRDYSFSITNLEPEDIATYYCLQYDNLWTFGGGTKLEIK
binding [1]: binds
binding [2]: binds

From patent US20140087400A1
